According to PubChem BioAssay AID1487 (National Center for Advancing Translational Sciences (NCATS), 2009):
This is one part of the list. Shown are side measurements of this screen, not its main read-out; they come without a call. Compounds called inactive in the main read-out are mostly missing here. Words in brackets tell the shape of the fitted curve; partial curves, single points and poor fits give uncertain potencies.

Assay: qHTS Assay for Modulators of Lamin A Splicing
Conditions: HeLa LMNA splicing GFP/RFP minigene ratio, 48 h
Method in brief: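 S3 HeLa cells stably expressing lamin A-EGFP splicing minigene plus DsRed2, 600 cells/well, 48 h compound exposure at 37C. Laser-scanning cytometry; analysed as GFP (500-530 nm)/RFP (575-640 nm) total intensity ratio; 0.5% DMSO vehicle.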

[1] = measured here: RFP viability control channel
[2] = measured here: GFP splicing reporter channel

Structure (SMILES) | AC50 [1] | AC50 [2]
C1=Nc2c(Nc3ccccc3)ncnc2Oc2ccccc21 | 25.1 µM [rising, single point] | –
CCOc1ccc2nc(NC(=O)c3ccoc3C)sc2c1 | – | 2.82 µM [rising, full curve, poor fit]
c1ccc(CNc2ncnc3ccc(-c4cccnc4)cc23)cc1 | 15.8 µM [falling, partial curve] | 15.8 µM [falling, partial curve]
O=C(CSc1nc(-c2ccccc2)c(-c2ccccc2)[nH]1)Nc1nccs1 | 0.00447 µM [falling, full curve, poor fit] | –
CCOC(=O)C1=C(c2ccccc2)N(C)C(=O)NC1c1ccc(OC(F)F)c(OC)c1 (stereo not drawn) | – | 12.6 µM [rising, single point]
Cc1ccc(NC(=O)CN(C)C(=S)NC2CC2)cc1 | – | 0.02 µM [falling, full curve, poor fit]
COc1cccc(CNC(=O)c2ccc(CNS(=O)(=O)c3ccc(C)cc3)cc2)c1 | – | 35.5 µM [falling, partial curve]
COCCCNC(=O)c1cc(Sc2ccc(F)cc2)nc2ccccc12 | 35.5 µM [rising, partial curve, poor fit] | –
COc1cccc2cc(/C(=N/O)c3ccc(Br)cc3)oc12 | 35.5 µM [falling, partial curve] | 35.5 µM [falling, partial curve]
Cc1ccc(S(=O)(=O)N2CCC(=O)N(CCOCc3ccc(Cl)cc3)CC2)cc1 | 11.2 µM [rising, partial curve] | –
Cc1ccc(S(=O)(=O)NCCC(c2ccccc2)c2ccco2)cc1 (stereo not drawn) | 12.6 µM [rising, partial curve] | –
O=c1[nH]c(SCc2ccccc2[N+](=O)[O-])nc2nc[nH]c12 | 35.5 µM [falling, single point] | –
O=C(O)c1nc2cc(Cl)c(Cl)cc2[nH]c1=O | 25.1 µM [rising, partial curve] | 20 µM [rising, partial curve]
Cc1ccc(CNC(=O)Cn2c(=O)ccc3cc(S(=O)(=O)N4CCC(C)CC4)ccc32)cc1 | 0.0282 µM [falling, full curve] | 0.0398 µM [falling, full curve, poor fit]
CC1=C(C(=O)Nc2ccccc2)C(c2ccc(C)cc2)N=C(Nc2nc3ccccc3o2)N1 (stereo not drawn) | 15.8 µM [falling, partial curve] | –
CCC(CO)NCCNC(CC)CO (stereo not drawn) | 0.282 µM [falling, full curve, poor fit] | –
Cc1cc(N/N=C/c2cccc(Br)c2)nc2ccccc12 | 11.2 µM [rising, partial curve] | –
Cc1ccc(NC(=O)C(C)OC(=O)c2ccc(NS(=O)(=O)c3ccc(F)c(F)c3)cc2)cc1 (stereo not drawn) | 15.8 µM [rising, partial curve] | 11.2 µM [rising, partial curve]
Cn1cc(CNCc2ccc(-n3cccn3)cc2)c(-c2ccccc2F)n1 | 0.00501 µM [falling, full curve, poor fit] | 35.5 µM [falling, single point]
O=C(/C=C/c1ccco1)Nc1cccc(NC(=O)/C=C/c2ccco2)n1 | 35.5 µM [rising, single point] | –
O=C(Nc1nccs1)c1csc2c1CCCC2 | 15.8 µM [rising, partial curve, poor fit] | –
CCOC(=O)C1=C(c2ccccc2)N=c2s/c(=C\c3ccc(O)cc3)c(=O)n2C1c1cccs1 (stereo not drawn) | – | 25.1 µM [falling, single point]
CCOC(=O)c1ccc(NC(=O)c2cccc(S(=O)(=O)N3CCOCC3)c2)cc1 | 17.8 µM [rising, single point] | 14.1 µM [rising, partial curve]
COc1cc(/C=N/O)cc(Br)c1OCc1cccc(Cl)c1 | 22.4 µM [falling, single point] | 28.2 µM [falling, single point]
Cc1ccc(S(=O)(=O)Nc2ccc(Cl)cc2)cc1NC(=O)c1cc2c(s1)CCCC2 | 20 µM [rising, partial curve, poor fit] | –
Cc1cccc(-n2nnc(C(=O)NC3CCCc4ccccc43)c2N)c1 (stereo not drawn) | 35.5 µM [falling, single point] | 17.8 µM [falling, single point]
O=C(Cc1ccccc1)NNc1ccc2ccccc2c1 | 4.47 µM [rising, full curve, poor fit] | –

Taken from the results shown (three entries):
Structure (SMILES) | AC50 [1] | AC50 [2]
Cc1ccc(CNC(=O)Cn2c(=O)ccc3cc(S(=O)(=O)N4CCC(C)CC4)ccc32)cc1 | 0.0282 µM [falling, full curve] | 0.0398 µM [falling, full curve, poor fit]
CC1=C(C(=O)Nc2ccccc2)C(c2ccc(C)cc2)N=C(Nc2nc3ccccc3o2)N1 (stereo not drawn) | 15.8 µM [falling, partial curve] | –
CCC(CO)NCCNC(CC)CO (stereo not drawn) | 0.282 µM [falling, full curve, poor fit] | –

Going on with the list:

Structure (SMILES) | AC50 [1] | AC50 [2]
CCOc1ccc(C(=O)NCC(=O)N2CCC(C)CC2)cc1OCC | – | 0.501 µM [falling, partial curve, poor fit]
COc1ccc(C(=O)NNC(=O)c2ccc(S(=O)(=O)N3CC(C)OC(C)C3)cc2)cc1 (stereo not drawn) | – | 6.31 µM [rising, single point]
Cc1cc(C(=O)NC2Cc3ccccc3C2)c(C)o1 | 1.78 µM [rising, full curve, poor fit] | 0.0224 µM [rising, full curve, poor fit]
O=C(C1CC1)N1N=C(C2CCCCC2)CC1(O)C(F)(F)F (stereo not drawn) | 5.62 µM [falling, single point] | –
COc1ccccc1-c1ccc2ncnc(N(C)Cc3ccco3)c2c1 | 11.2 µM [falling, partial curve] | 15.8 µM [falling, partial curve]
CCN(C(=O)CSc1nnc(Cc2cccc3ccccc23)n1N)C1CCS(=O)(=O)C1 (stereo not drawn) | 0.00355 µM [falling, full curve, poor fit] | 0.00501 µM [falling, full curve, poor fit]
CC(C)=CCC/C(C)=C/C=N/NC(=O)c1ccccc1[N+](=O)[O-] | 0.447 µM [falling, full curve, poor fit] | –
Cc1ccccc1Nc1cc(C)c2c(O)cccc2n1 | 14.1 µM [rising, partial curve] | 10 µM [rising, partial curve]
COc1ccccc1C1(O)CCN(CC(=O)Nc2nc(-c3ccccc3)cs2)CC1 | 20 µM [rising, partial curve, poor fit] | –
CC1(OC(=O)CCc2ccccc2)C(=O)C=C2C=C(c3ccc(C#N)cc3)N(Cc3ccco3)C=C2C1=O (stereo not drawn) | 0.316 µM [falling, full curve, poor fit] | –
CCCn1c2ccc(/C(C)=N\O)cc2c2cc(/C(C)=N/O)ccc21 | 35.5 µM [rising, single point] | –
CC(c1ccccc1)C1C(C#N)=C(N)OC2=C1C(=O)CC(C)(C)C2 (stereo not drawn) | 31.6 µM [rising, single point] | 35.5 µM [rising, single point]
O=C(Nc1ccnc(-c2ccncc2)n1)c1ccccc1Cl | – | 0.501 µM [rising, full curve]
C=CCn1c(O)c(N=NC(=O)CNC(=O)c2ccco2)c2ccccc21 | 11.2 µM [rising, partial curve] | –
Cc1cc(C(=O)Cn2nnc3ccccc3c2=O)c(C)n1-c1ccccc1F | 10 µM [rising, partial curve] | –
COC(=O)c1ccc(/C=N/NS(=O)(=O)c2cc(C)ccc2C)cc1 | 1.41 µM [rising, partial curve, poor fit] | –
COC(=O)c1ccc2c(=O)[nH]c(CCl)nc2c1 | – | 1.78 µM [falling, partial curve, poor fit]
CCc1ccccc1NC(=O)Nc1cc(C(=O)NCc2cccc(F)c2)ccc1N1CCCC1 | 14.1 µM [falling, partial curve] | 15.8 µM [falling, partial curve]
CN(C)[C@@H]1C(=O)C(C(N)=O)=C(O)[C@]2(O)C(=O)C3=C(O)c4c(O)ccc(Cl)c4[C@H](O)[C@H]3C[C@@H]12 | 0.282 µM [falling, partial curve, poor fit] | 0.282 µM [falling, single point]
COc1ccc(-c2nc3c(c4c2C[C@H](c2ccccc2)OC4)CN(C(=O)c2cc(I)ccc2F)CC3)c(C)c1 | – | 0.501 µM [rising, single point]
Cc1ccc(NC(=S)N=Nc2c(O)n(C)c3ccc(S(=O)(=O)N4CCOCC4)cc23)cc1 | 6.31 µM [rising, partial curve] | –
CCCN(CCC)CC(O)COc1ccc2c(c1)OCO2 (stereo not drawn) | – | 22.4 µM [rising, partial curve, poor fit]
Cc1cc(C)nc(-n2ncc3c2CC(c2cccc(Cl)c2)CC3=O)n1 (stereo not drawn) | 0.316 µM [rising, full curve] | 0.251 µM [rising, full curve]
O=C(Nc1ccc2c(c1)OCCO2)C1CCN(S(=O)(=O)c2ccc(Br)s2)CC1 | 22.4 µM [rising, single point] | –
O=C(NCCN1C(=O)S/C(=C\c2ccccc2)C1=O)c1cc(S(=O)(=O)N2CCOCC2)c(Cl)cc1Cl | 10 µM [rising, partial curve, poor fit] | –
Cc1ccc(C(=O)N2CCc3cc(CNC(=O)c4ccc(Br)cc4)ccc32)cc1 | 0.0447 µM [falling, full curve, poor fit] | 10 µM [falling, partial curve, poor fit]
O=C(CSc1nc2ccccc2c(=O)n1-c1ccccc1Cl)Nc1cccc(S(=O)(=O)N2CCOCC2)c1 | 6.31 µM [rising, partial curve, poor fit] | 3.98 µM [rising, full curve, poor fit]
